According to article PMC7143940 (Molecules, 2020):
HELM strings list residues between dots; [ac] is acetyl, [am] amide, other brackets name non-standard units.

Experiment: general procedure: Fmoc solid-phase peptide synthesis; Fmoc-Cys(Trt)-NovaSynTGT Resin (0.2 meq/g), for peptide 1; HBTU / N,N-diisopropylethylamine
Conditions: whole synthesis, scale of the general procedure ca. 500 mg resin, 1 mmol (as printed, peptide 1)

Substance: PEPTIDE1{K.W.C.E.C}$$$$V2.0
- final HPLC purity: 99.38%
